# The campaign covered roughly 140,000 compounds. About 4,300 (3.1%) were called active. This list was built around the results that the source calls inconclusive (neither active nor inactive); the mix of calls is not that of the screen.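 The calls were made as follows: active = readout at or below -70, meaning at least 70% loss of cells showing the perinucleolar compartment, a nuclear body marking cancer cells; inconclusive = readout between -30 and a set limit; inactive = the rest.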
# Assay: High Content Assay for Compounds that inhibit the Assembly of the Perinucleolar Compartment;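 also: plate controls were DMSO wells for no effect and camptothecin positive control wells for full effect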
# Settings: PC3M PTB-GFP, PNC prevalence imaging, 16 h; at 10 µM; hits give low values
# Procedure, shortened: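 PC3M cells stably expressing PTB-GFP, 750–1000 cells/well, treated 16 h at 37 °C with compound (23 nl of library stock), in duplicate. After paraformaldehyde fixation and Hoechst stain, imaged at 20x; PNC prevalence scored by image analysis.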
row,SMILES,"activity change (PNC), negative = inhibition"
1,COc1cc(C(=O)ON=C2C=C(C)C(=O)C(C)=C2)cc(OC)c1OC,inactive: -16%
2,Cc1nc2ccc(NC(=O)c3ccc(S(=O)(=O)N(C)c4ccccc4)cc3)cc2s1,inconclusive: -37.9%
3,CC(=O)NC12CC3CC(C)(C1)CC(NC(C)=O)(C3)C2,inconclusive: -59.1%
4,CCOC(=O)c1c(NC(=O)CSc2nnnn2-c2ccccc2)sc2c1CCC(C)C2 (stereo not drawn),inactive: 51.6%
5,O=C(COC(=O)CNC(=O)C12CC3CC(CC(C3)C1)C2)NC1CCS(=O)(=O)C1 (stereo not drawn),inconclusive: -32%
6,Cc1cc(Nc2ncc(Cl)cc2Cl)n[nH]1,inconclusive: -30.8%
7,O=C(C1CCCN(S(=O)(=O)c2cnc[nH]2)C1)N1CCN(c2ccc(Cl)cc2)CC1 (stereo not drawn),inactive: -24.2%
8,CC(C)(C)N=Cc1cc(-c2ccccc2)sc1O,inconclusive: -50.6%
9,COc1ccc(N2CCN(C(=O)c3c(C)nn(-c4ccccc4)c3C)CC2)cc1,inactive: -27.1%
10,COCCCNC(=O)Cn1cc(C(=O)C2CC2)c2ccccc21,inconclusive: -42.3%
11,O=C(CN1CCN(c2ccccn2)CC1)N1c2ccccc2CCc2ccccc21,inconclusive: -44.9%
12,O=c1c2cnn(-c3ccccc3)c2nc(-c2cccs2)n1-c1ccc(Cl)cc1,inconclusive: -47.8%
13,O=C(CCc1ccccc1)NCCSCc1c(F)cccc1Cl,inconclusive: -42%
14,CCOC(=O)/C(=N\Nc1ccccc1)S(=O)(=O)c1ccccc1,inconclusive: -30.5%
15,COc1c(C)cc(Br)cc1C(=O)O,inconclusive: -59.6%
16,Cc1ccc(-c2noc(CCC(=O)NC3CCCc4ccccc43)n2)cc1 (stereo not drawn),inconclusive: -48.2%
17,CCOc1cc(NC(=S)NCc2ccco2)c(OCC)cc1NC(=O)C1CC1,inconclusive: -62.4%
18,Fc1ccccc1-c1nc(-c2ccccc2)no1,active: -100%
19,COc1cccc(OCC(=O)N(Cc2nc(-c3ccc(Cl)cc3)no2)C(C)C)c1,inconclusive: -31.4%
20,O=S(=O)(c1cccc2nsnc12)N1CCc2ccccc2C1,inconclusive: -34.6%

# A section from further up:
row,SMILES,"activity change (PNC), negative = inhibition"
7,O=C(C1CCCN(S(=O)(=O)c2cnc[nH]2)C1)N1CCN(c2ccc(Cl)cc2)CC1 (stereo not drawn),inactive: -24.2%
8,CC(C)(C)N=Cc1cc(-c2ccccc2)sc1O,inconclusive: -50.6%

# (listing goes on)

row,SMILES,"activity change (PNC), negative = inhibition"
1,ClC(Cl)(c1nnnn1-c1ccccc1)c1nnnn1-c1ccccc1,inconclusive: -52.3%
2,COC(=O)N1CCN(c2ccc(Cl)c(Cl)c2)CC1,active: -102%
3,CC(C)(C)C(=O)Nc1cccc(-c2nc3ccccc3[nH]2)c1,inconclusive: -63.9%
4,CCOC(=O)C(C)n1cnc2c(nnn2Cc2ccc(C)cc2)c1=O (stereo not drawn),inconclusive: -50%
5,Cc1ccc(OCc2nnc(SCC(=O)NCc3ccccc3)n2C)cc1,inconclusive: -35.1%
6,Cc1cc(=O)[nH]c(SCC(=O)NCc2ccco2)n1,inconclusive: -74.3%
7,COc1ccccc1NS(=O)(=O)c1cccc(C(=O)OCC(=O)Nc2cc(C)on2)c1,inconclusive: -59.2%
8,Cc1nn(-c2ccccc2)c2c1C(c1ccco1)C(C#N)=C(N)O2 (stereo not drawn),inactive: 9.17%
9,CCOC(=O)Cn1c2c(c(=N)c3c1CCC3)CCC2,inconclusive: -37.8%
10,CCOC(=O)N/N=C(\C)c1ccc(OC(F)F)cc1OC(F)F,inactive: -14.1%
11,COc1ccccc1-c1c(-c2ccc(OCC(=O)NN)cc2O)n[nH]c1C(F)(F)F,inconclusive: -34.7%
12,CCCOc1ccc(C(=O)Nc2ccc(C)cc2[N+](=O)[O-])cc1,inactive: 37.2%
13,CCc1ccc(N=C2N=C(N)c3ccccc32)cc1,inconclusive: -39.6%
14,CC(C)OC(=O)c1cccnc1SCC(=O)N(C)c1ccccc1,inconclusive: -72.3%
15,Cc1ccc(/C=N/N2CCN(Cc3ccccc3)CC2)o1,inactive: 28.7%
16,CC(C)(C)C(=O)/C=C(\N)c1ccccn1,inconclusive: -60.6%
17,CCOC(=O)C(NC(=O)c1ccc(OC)cc1)(N1CCCC1=O)C(F)(F)F (stereo not drawn),inactive: -15%
18,O=Cc1ccc(OCC(=O)NC(=O)NC2CCCCC2)cc1,inconclusive: -37.9%
19,Cc1cc(C)n(CCc2nc(-c3cc4ccccc4o3)cs2)n1,inactive: 24.9%
20,CN(C)S(=O)(=O)c1cccc(NC(=S)Nc2ccc(Cl)cc2Cl)c1,inconclusive: -33.3%

# Structural class, the entries above containing a Cl atom
row,SMILES,"activity change (PNC), negative = inhibition"
6,Cc1cc(Nc2ncc(Cl)cc2Cl)n[nH]1,inconclusive: -30.8%
7,O=C(C1CCCN(S(=O)(=O)c2cnc[nH]2)C1)N1CCN(c2ccc(Cl)cc2)CC1 (stereo not drawn),inactive: -24.2%
12,O=c1c2cnn(-c3ccccc3)c2nc(-c2cccs2)n1-c1ccc(Cl)cc1,inconclusive: -47.8%
13,O=C(CCc1ccccc1)NCCSCc1c(F)cccc1Cl,inconclusive: -42%
19,COc1cccc(OCC(=O)N(Cc2nc(-c3ccc(Cl)cc3)no2)C(C)C)c1,inconclusive: -31.4%
1,ClC(Cl)(c1nnnn1-c1ccccc1)c1nnnn1-c1ccccc1,inconclusive: -52.3%
2,COC(=O)N1CCN(c2ccc(Cl)c(Cl)c2)CC1,active: -102%
20,CN(C)S(=O)(=O)c1cccc(NC(=S)Nc2ccc(Cl)cc2Cl)c1,inconclusive: -33.3%

# The list continues.

row,SMILES,"activity change (PNC), negative = inhibition"
1,O=S(=O)(c1ccc(Cl)cc1)n1ccc2cccnc21,active: -100%
2,Cc1cc(NC(=O)Cn2cnc3c2c(=O)n(C)c(=O)n3C)n(-c2ccccc2)n1,inconclusive: -35.7%
3,O=C(NCc1ccco1)c1ccc(Cn2cc([N+](=O)[O-])cn2)o1,inconclusive: -54.4%
4,Cc1cc(C(=O)OCC(=O)N2CCN(c3ccccc3)CC2)c2ccccc2n1,inactive: 3.55%
5,Cc1ccc2c(c1)C1CN(C)CCC1N2C(=O)c1ccccc1NS(=O)(=O)c1ccc(F)cc1C (stereo not drawn),active: -99.6%
6,COc1cc(/C=C2\SC(=S)NC2=O)ccc1OS(=O)(=O)c1ccccc1,inconclusive: -42.9%
7,Cc1ccc(-c2nc3s/c(=C\c4ccco4)c(=O)n3n2)cc1,inactive: -12.5%
8,O=C(CSc1n[nH]c(-c2ccncc2)n1)c1ccccc1,inactive: 19.7%
9,Cc1nnc(SCc2nnc(-c3ccccc3Br)o2)n1-c1ccccc1,inactive: -28.5%
10,COc1ccc(-n2c(Cn3nnc4ccccc43)n[nH]c2=S)cc1,inconclusive: -52.9%
11,C=CCn1c(SCc2nc3ccccc3c(=O)[nH]2)nc2ccccc2c1=O,inconclusive: -37.9%
12,COC(=O)Cn1c(CCS(=O)(=O)c2ccc(Cl)cc2)nc2ccccc21,inconclusive: -47.9%
13,CCc1ccc(C(=O)N2CCN(c3ccc(F)cc3)CC2)s1,inconclusive: -55.6%
14,Nc1nnc(SCC(=O)NCc2ccc3c(c2)OCO3)s1,inconclusive: -32.9%
15,O=C1C(Cl)=C(N2CCCCC2)C(=O)N1c1ccccc1Cl,inactive: 20.2%
16,COc1ccc(C(=O)c2cc([N+](=O)[O-])ccc2N2CCOCC2)cc1,active: -83.6%
17,CCOc1ccc(Oc2ccc(C(F)(F)F)cc2N)cc1,inconclusive: -62%
18,COc1ccc(-n2c(Cc3cccn3C)nnc2SCC(=O)Nc2ccc(Cl)cc2)cc1,inconclusive: -53.5%
